US8685695B2, “Method for producing a mixture of bacteriophages and the use thereof in the therapy of antibiotic-resistant staphylococci” (priority 2008, dated 2014)

Columns and labels:
Type in all cases: cell-based, Staphylococcus aureus
S. aureus M.06.02.0071 = assay: Nanocalorimetric measurement of metabolism; details: antibiotics 10 μg/ml; bacteriophages 4×10^9 PFU/ml
Description: (§1) Another sensitive method of examining the activity of micro-organisms is available in the form of nanocalorimetry. In this technique, metabolic action is measured by way of the heat it produces. The production of heat is measured from the voltage (in [p\/]) generated at thermocouples.
(§2) A detailed description of the measuring system used and the procedure can be found in: J. Lerchner et al., Thermochimica Acta 477, 2008, 48-53.
(§3) The concentration of the bacteriophages was 4×10^9 PFU/ml.

S. aureus DSM 18421 = assay: Nanocalorimetric measurement of metabolism; details: antibiotics 10 μg/ml; bacteriophages 4×10^9 PFU/ml
Description: as §1, §2, §3

[1] = tested on: S. aureus from tissue (M.06.02.0071, mouse pneumonia model); assay: Nanocalorimetric measurement of metabolism, bacteria isolated from lung tissue; details: antibiotics 10 μg/ml, bacteriophages 4×10^9 PFU/ml
Description: as §1, §2, §3

CCC[C@@H]1C[C@@H](C(=O)N[C@@H]([C@H]2O[C@H](SC)[C@H](O)[C@@H](O)[C@H]2O)[C@H](C)Cl)N(C)C1 [Clindamycin, clindamycin]
% relative to control (S. aureus M.06.02.0071): 34% | Difference voltage (S. aureus M.06.02.0071): −3.499 μV | % relative to control (S. aureus DSM 18421): 37% | Difference voltage (S. aureus DSM 18421): −3.808 μV | % relative to control [1]: 81% | Difference voltage [1]: −0.706 μV
